The other results are listed elsewhere or left out.
Key:
Test in all cases: log2 fold change, soluble protein after heating vs DMSO (PISA); higher = thermal stabilisation; K562 cells, 10 uM, 30 min; active = over 0.2 and 3.5 SD of the protein, either way, in both replicates (recomputed)
saracatinib = compound: CN1CCN(CCOc2cc(OC3CCOCC3)c3c(Nc4c(Cl)ccc5c4OCO5)ncnc3c2)CC1 [saracatinib]
Outline: (§1)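 K562 cells at 2×10^6 cells/mL were treated for 30 min with 10 μM compound, and aliquots were heated for 3 min over 48°C-58°C before pooling. Extraction used PBS with 0.5% NP-40 at 4°C, and soluble protein was the supernatant after 21,000xg for 90 min, measured by TMTpro 16plex LC-MS/MS with channel sums equalised. Thermal stability values, relative to control samples and from duplicates, are log2 fold changes.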

The chains behind the UniProt entries cited, without tags or fusion partners. Where a name states a change or a piece, a line headed by the entry shows the natural chain unless it says otherwise.
UniProt Q9NVW2: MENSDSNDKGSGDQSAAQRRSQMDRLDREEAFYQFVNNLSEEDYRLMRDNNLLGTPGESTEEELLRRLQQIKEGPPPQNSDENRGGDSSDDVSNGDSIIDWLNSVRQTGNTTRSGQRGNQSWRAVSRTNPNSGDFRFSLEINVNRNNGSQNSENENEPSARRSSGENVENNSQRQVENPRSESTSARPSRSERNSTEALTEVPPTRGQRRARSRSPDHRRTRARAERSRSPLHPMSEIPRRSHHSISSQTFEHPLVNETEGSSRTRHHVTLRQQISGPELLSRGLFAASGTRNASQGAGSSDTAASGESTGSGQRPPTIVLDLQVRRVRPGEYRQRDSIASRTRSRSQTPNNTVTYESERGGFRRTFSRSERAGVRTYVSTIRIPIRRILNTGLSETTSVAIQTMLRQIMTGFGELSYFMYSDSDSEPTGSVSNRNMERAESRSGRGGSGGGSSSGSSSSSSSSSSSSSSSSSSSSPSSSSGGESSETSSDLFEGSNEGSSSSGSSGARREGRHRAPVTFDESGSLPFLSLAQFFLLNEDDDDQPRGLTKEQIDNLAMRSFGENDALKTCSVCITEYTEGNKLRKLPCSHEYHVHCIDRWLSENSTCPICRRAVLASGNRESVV
UniProt Q8WVD3: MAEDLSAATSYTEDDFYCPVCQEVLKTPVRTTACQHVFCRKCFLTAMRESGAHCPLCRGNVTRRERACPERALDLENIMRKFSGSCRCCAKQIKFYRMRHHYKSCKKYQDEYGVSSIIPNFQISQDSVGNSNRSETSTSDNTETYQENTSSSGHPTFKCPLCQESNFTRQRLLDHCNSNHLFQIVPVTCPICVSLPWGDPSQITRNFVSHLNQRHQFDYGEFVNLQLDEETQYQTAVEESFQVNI
UniProt P35251: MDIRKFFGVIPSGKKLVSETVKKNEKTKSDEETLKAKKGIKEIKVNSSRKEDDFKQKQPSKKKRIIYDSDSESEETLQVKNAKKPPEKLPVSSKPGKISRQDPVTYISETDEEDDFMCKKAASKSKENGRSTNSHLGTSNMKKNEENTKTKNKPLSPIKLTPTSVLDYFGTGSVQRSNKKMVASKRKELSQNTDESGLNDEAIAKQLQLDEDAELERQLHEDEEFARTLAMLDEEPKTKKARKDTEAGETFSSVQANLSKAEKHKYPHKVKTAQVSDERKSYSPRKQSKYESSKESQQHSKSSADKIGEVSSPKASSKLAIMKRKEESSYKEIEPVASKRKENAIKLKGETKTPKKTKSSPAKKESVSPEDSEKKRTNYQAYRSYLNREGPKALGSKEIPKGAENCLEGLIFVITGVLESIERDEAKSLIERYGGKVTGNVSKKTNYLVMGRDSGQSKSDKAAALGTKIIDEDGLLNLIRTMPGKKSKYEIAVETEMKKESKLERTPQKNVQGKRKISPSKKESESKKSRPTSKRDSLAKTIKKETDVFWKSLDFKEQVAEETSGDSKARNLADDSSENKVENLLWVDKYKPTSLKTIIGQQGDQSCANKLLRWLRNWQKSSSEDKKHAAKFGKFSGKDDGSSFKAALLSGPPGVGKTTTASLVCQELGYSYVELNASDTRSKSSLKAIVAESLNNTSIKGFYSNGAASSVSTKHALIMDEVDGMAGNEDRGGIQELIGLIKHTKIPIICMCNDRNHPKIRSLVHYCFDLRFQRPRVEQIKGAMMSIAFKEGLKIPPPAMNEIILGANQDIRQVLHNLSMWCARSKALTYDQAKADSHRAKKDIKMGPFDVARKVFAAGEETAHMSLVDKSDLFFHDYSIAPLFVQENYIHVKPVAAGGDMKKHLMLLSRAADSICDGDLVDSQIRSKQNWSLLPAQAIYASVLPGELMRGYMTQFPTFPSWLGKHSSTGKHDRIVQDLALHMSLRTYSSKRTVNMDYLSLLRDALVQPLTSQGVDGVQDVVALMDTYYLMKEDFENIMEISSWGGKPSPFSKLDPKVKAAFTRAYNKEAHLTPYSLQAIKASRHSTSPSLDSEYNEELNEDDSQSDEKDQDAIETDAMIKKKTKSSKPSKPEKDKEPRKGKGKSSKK
UniProt Q8TEB9: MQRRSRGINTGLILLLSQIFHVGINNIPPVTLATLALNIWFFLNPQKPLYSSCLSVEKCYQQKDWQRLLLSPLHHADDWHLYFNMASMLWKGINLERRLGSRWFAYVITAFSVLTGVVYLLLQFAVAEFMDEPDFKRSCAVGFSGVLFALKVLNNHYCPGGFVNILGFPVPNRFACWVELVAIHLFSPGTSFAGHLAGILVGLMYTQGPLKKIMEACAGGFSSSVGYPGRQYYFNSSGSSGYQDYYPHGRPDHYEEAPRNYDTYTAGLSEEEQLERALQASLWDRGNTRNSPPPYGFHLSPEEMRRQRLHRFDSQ
UniProt P35241, whole entry, looked up: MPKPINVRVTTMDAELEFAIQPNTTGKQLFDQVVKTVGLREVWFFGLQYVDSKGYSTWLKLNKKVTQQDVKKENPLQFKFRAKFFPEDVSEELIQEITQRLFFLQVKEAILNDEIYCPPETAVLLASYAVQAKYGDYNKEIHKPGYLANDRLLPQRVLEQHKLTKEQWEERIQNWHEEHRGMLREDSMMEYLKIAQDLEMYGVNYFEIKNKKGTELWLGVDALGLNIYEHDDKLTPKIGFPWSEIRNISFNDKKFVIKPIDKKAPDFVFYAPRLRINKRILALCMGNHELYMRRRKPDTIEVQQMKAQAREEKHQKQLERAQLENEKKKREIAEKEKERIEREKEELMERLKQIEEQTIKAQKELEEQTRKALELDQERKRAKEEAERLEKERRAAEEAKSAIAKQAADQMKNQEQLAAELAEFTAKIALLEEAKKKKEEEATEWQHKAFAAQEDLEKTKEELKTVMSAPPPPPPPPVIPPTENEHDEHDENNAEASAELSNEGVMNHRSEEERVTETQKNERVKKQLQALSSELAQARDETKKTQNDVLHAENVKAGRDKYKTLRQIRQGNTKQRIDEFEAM
UniProt Q00765: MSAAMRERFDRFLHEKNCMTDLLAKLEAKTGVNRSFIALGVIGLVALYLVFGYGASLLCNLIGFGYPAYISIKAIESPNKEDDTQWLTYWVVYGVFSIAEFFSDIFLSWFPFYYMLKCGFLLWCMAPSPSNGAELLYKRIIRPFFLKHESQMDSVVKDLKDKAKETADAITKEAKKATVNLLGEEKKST
UniProt Q6NUK4: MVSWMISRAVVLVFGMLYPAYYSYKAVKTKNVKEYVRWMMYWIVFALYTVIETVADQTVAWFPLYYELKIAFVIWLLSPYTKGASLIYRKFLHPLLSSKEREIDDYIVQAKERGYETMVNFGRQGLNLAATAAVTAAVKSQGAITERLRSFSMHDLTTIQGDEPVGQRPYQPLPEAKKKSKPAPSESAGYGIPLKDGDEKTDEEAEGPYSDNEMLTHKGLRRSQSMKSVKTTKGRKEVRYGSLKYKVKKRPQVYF
UniProt Q9Y256: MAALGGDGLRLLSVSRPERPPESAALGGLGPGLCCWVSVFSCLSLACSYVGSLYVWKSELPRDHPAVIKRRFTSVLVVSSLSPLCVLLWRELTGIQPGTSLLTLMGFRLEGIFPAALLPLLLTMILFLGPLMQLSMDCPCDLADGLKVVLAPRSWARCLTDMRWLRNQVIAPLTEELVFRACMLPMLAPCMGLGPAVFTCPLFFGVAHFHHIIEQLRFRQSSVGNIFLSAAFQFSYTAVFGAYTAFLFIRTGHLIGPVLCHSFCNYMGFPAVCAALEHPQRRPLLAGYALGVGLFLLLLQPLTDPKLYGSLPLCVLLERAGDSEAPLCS

sotrastaurin = compound: CN1CCN(c2nc(C3=C(c4c[nH]c5ccccc45)C(=O)NC3=O)c3ccccc3n2)CC1 [sotrastaurin]
Outline: as §1

alvocidib = compound: CN1CC[C@H](c2c(O)cc(O)c3c(=O)cc(-c4ccccc4Cl)oc23)[C@H](O)C1 [alvocidib]
Outline: as §1

Tubastatin A = compound: CN1CCc2c(c3ccccc3n2Cc2ccc(C(=O)NO)cc2)C1 [Tubastatin A]
Outline: as §1

defactinib = compound: CNC(=O)c1ccc(Nc2ncc(C(F)(F)F)c(NCc3nccnc3N(C)S(C)(=O)=O)n2)cc1 [defactinib]
Outline: as §1

rucaparib = compound: CNCc1ccc(-c2[nH]c3cc(F)cc4c3c2CCNC4=O)cc1 [rucaparib]
Outline: as §1

[1] = compound: CNc1nc(-c2ccc3c(N)n[nH]c3c2)cc(N2C[C@@H](C(=O)NC3CCCCC3)CC[C@H]2C)n1
Outline: as §1

encorafenib = compound: COC(=O)N[C@@H](C)CNc1nccc(-c2cn(C(C)C)nc2-c2cc(Cl)cc(NS(C)(=O)=O)c2F)n1 [encorafenib]
Outline: as §1

[2] = compound: COC(=O)[C@H](CCSC)NC(=O)C1=C(C=C(C=C1)NC[C@H](CS)N)C2=CC=CC=C2
Outline: as §1

filanesib = compound: CON(C)C(=O)N1N=C(c2cc(F)ccc2F)S[C@@]1(CCCN)c1ccccc1 [filanesib]
Outline: as §1

zotarolimus = compound: CO[C@H]1C[C@@H]2CC[C@@H](C)[C@@](O)(O2)C(=O)C(=O)N2CCCC[C@H]2C(=O)O[C@H]([C@H](C)C[C@@H]2CC[C@H](n3cnnn3)[C@H](OC)C2)CC(=O)[C@H](C)/C=C(\C)[C@@H](O)[C@@H](OC)C(=O)[C@H](C)C[C@H](C)/C=C/C=C/C=C/1C [zotarolimus]
Outline: as §1

idasanutlin = compound: COc1cc(C(=O)O)ccc1NC(=O)[C@@H]1N[C@@H](CC(C)(C)C)[C@](C#N)(c2ccc(Cl)cc2F)[C@H]1c1cccc(Cl)c1F [idasanutlin]
Outline: as §1

[3] = compound: COc1cc2nc(-c3cc(F)ccc3O)nc(N[C@@H]3CNC[C@H]3C(C)(C)O)c2cc1OC
Outline: as §1

lapatinib = compound: CS(=O)(=O)CCNCc1ccc(-c2ccc3ncnc(Nc4ccc(OCc5cccc(F)c5)c(Cl)c4)c3c2)o1 [lapatinib]
Outline: as §1

pictilisib = compound: CS(=O)(=O)N1CCN(Cc2cc3nc(-c4cccc5[nH]ncc45)nc(N4CCOCC4)c3s2)CC1 [pictilisib]
Outline: as §1

[4] = compound: CNC(=O)C1=CC=CC=C1NC2=NC(=NC=C2Cl)NC3=C(C=C(C=C3)N4CCOCC4)OC
Outline: as §1

alisertib = compound: COc1cc(Nc2ncc3c(n2)-c2ccc(Cl)cc2C(c2c(F)cccc2OC)=NC3)ccc1C(=O)O [alisertib]
Outline: as §1

gefitinib = compound: COc1cc2ncnc(Nc3ccc(F)c(Cl)c3)c2cc1OCCCN1CCOCC1 [gefitinib]
Outline: as §1

[5] = compound: COc1cccc2cc(-c3nc([C@H]4CC[C@H](C(=O)O)CC4)n4ncnc(N)c34)[nH]c12
Outline: as §1

[6] = compound: COC1=CC=C(C=C1)CN2C=CC3=C2C=C(C=C3)C(=O)NO
Outline: as §1

Measured: log2 fold change

RLIM (UniProt Q9NVW2)
inactive: saracatinib -0.12 | sotrastaurin 0.001 | alvocidib 0.023 | Tubastatin A 0.337 | defactinib 0.041 | rucaparib -0.174 | [1] 0.018 | encorafenib -0.102 | [2] 0.122 | filanesib 0.153 | zotarolimus -0.062 | idasanutlin -0.132 | [3] 0.299 | lapatinib -0.161 | pictilisib 0.342

RNF138 (UniProt Q8WVD3)
inactive: saracatinib -0.001 | sotrastaurin 0.042 | alvocidib -0.208 | Tubastatin A -0.003 | [4] -0.063 | defactinib -0.204 | rucaparib -0.022 | [1] -0.008 | encorafenib 0.018 | [2] 0.126 | filanesib -0.027 | zotarolimus 0 | idasanutlin 0.054 | alisertib -0.055 | [3] -0.154 | gefitinib -0.189 | [5] 0.041 | lapatinib -0.006 | pictilisib 0.232

RFC1 (UniProt P35251)
inactive: saracatinib -0.038 | sotrastaurin 0.07 | alvocidib 0.147 | Tubastatin A 0.011 | defactinib 0.082 | [1] 0.096 | [2] 0.043 | filanesib -0.114 | zotarolimus 0.001 | idasanutlin 0.043 | pictilisib -0.102

RELN (UniProt P78509)
inactive: saracatinib 0.019 | sotrastaurin 0.031 | alvocidib 0.021 | Tubastatin A 0.028 | [4] 0.033 | defactinib 0.044 | rucaparib 0.06 | [1] -0.029 | encorafenib -0.001 | [2] -0.048 | [6] -0.038 | filanesib 0.074 | zotarolimus -0.007 | idasanutlin 0.022 | alisertib 0.325 | [3] -0.028 | gefitinib -0.071 | [5] -0.082 | lapatinib 0.185 | pictilisib 0.026

RHBDD1 (UniProt Q8TEB9)
inactive: saracatinib 0.028 | sotrastaurin -0.026 | alvocidib -0.005 | [4] -0.026 | defactinib -0.164 | rucaparib 0.098 | [1] -0.043 | encorafenib 0.024 | [2] 0.18 | [6] -0.034 | filanesib 0.014 | zotarolimus 0.024 | alisertib 0.088 | [3] -0.115 | gefitinib -0.119 | [5] -0.155 | lapatinib -0.019 | pictilisib 0.098

RDX (UniProt P35241)
inactive: saracatinib 0.03 | sotrastaurin 0.021 | alvocidib 0.007 | Tubastatin A -0.031 | [4] -0.011 | defactinib 0.01 | rucaparib -0.007 | [1] -0.035 | encorafenib -0.03 | [2] 0.003 | [6] 0.119 | filanesib 0.004 | zotarolimus -0.019 | idasanutlin -0.032 | alisertib -0.078 | [3] -0.028 | gefitinib 0.004 | [5] 0.026 | lapatinib -0.011 | pictilisib 0.038

REEP5 (UniProt Q00765)
inactive: saracatinib 0.073 | sotrastaurin 0.07 | alvocidib -0.008 | Tubastatin A -0.007 | [4] -0.006 | defactinib 0.074 | rucaparib -0.068 | [1] -0.021 | encorafenib -0.036 | [2] -0.031 | [6] 0.105 | filanesib -0.051 | zotarolimus -0.016 | idasanutlin 0.102 | alisertib -0.001 | [3] -0.054 | gefitinib 0.03 | [5] 0.06 | lapatinib -0.041 | pictilisib -0.023

Reprinted at random: 2 records from the list.
RDX (UniProt P35241)
inactive: saracatinib 0.03 | sotrastaurin 0.021 | alvocidib 0.007 | Tubastatin A -0.031 | [4] -0.011 | defactinib 0.01 | rucaparib -0.007 | [1] -0.035 | encorafenib -0.03 | [2] 0.003 | [6] 0.119 | filanesib 0.004 | zotarolimus -0.019 | idasanutlin -0.032 | alisertib -0.078 | [3] -0.028 | gefitinib 0.004 | [5] 0.026 | lapatinib -0.011 | pictilisib 0.038

RFC1 (UniProt P35251)
inactive: saracatinib -0.038 | sotrastaurin 0.07 | alvocidib 0.147 | Tubastatin A 0.011 | defactinib 0.082 | [1] 0.096 | [2] 0.043 | filanesib -0.114 | zotarolimus 0.001 | idasanutlin 0.043 | pictilisib -0.102

Next records

REEP3 (UniProt Q6NUK4)
inactive: saracatinib -0.036 | sotrastaurin -0.176 | alvocidib -0.067 | Tubastatin A 0.029 | [4] 0.056 | defactinib 0.001 | rucaparib 0.238 | [1] -0.098 | encorafenib -0.081 | [2] 0.062 | [6] -0.099 | filanesib 0.006 | zotarolimus 0.019 | idasanutlin 0.096 | alisertib -0.346 | [3] 0.001 | gefitinib 0.024 | [5] 0.005 | lapatinib -0.014 | pictilisib 0.069

RCE1 (UniProt Q9Y256)
inactive: saracatinib 0.19 | sotrastaurin -0.066 | alvocidib -0.254 | Tubastatin A -0.322 | [4] 0.059 | defactinib -0.117 | rucaparib -0.021 | [1] 0.027 | encorafenib 0.024 | [2] 0.054 | filanesib -0.212 | zotarolimus -0.046 | idasanutlin -0.009 | alisertib -0.143 | [3] -0.221 | gefitinib 0.081 | [5] 0.004 | lapatinib -0.045 | pictilisib -0.053

Source: the supplement of paper PMC10849652
